Measured values as given in patent US20220168329A1, “COMBINATORIAL DRUG TREATMENT OF CANCER” (University of Virginia Patent Foundation, priority 2019, published 2022).

Test system: PANC-1 cells
Assay: RNA-Seq transcriptional response to Gem
Format: cell-based, Human
Conditions: IC30 Gem for 24 hours
Experimental: Control sgRNA (CgRNA) and PRMT5-KO cells were treated with gemcitabine (200 nM) or EPZ015666 (500 nM) for 48 hours. Total RNA was purified using an RNeasy mini kit (Qiagen #74104) by following the kit instructions. mRNA was isolated by using NEBNext Poly(A) mRNA Magnetic Isolation Module (New England Biolabs #7490S). RNA-Seq libraries were prepared using the NEBNext Ultra Directional RNA Library Prep Kit for Illumina (New England Biolabs #E7420S) by following the company's protocol. A Qubit measurement and bioanalyzer were used to determine the library quality.
General sequencing data quality was examined using FastQC (v. 0.11.5). […] The resulting sam files were sorted by reading names and converted to bam files using samtools (v. 1.9) sort command. For ATAC-Seq, sequencing reads mapped to mitochondria DNA were removed from the bam files using the samtools view. […] Next, the bam files were quantified against gencode (v27lift37) annotation using Stringtie (v. 1.3.4d) with the default settings.
After obtaining the gene count matrix from Stringtie, we imported it into R and normalized the data following the pipeline of DESeq2. […] By calling the DESeq function, we determined genes with significant expression changes between the PRMT5 WT and KO samples thresholding at an adjusted P value of 0.01. […]

Compound: Nc1ccn([C@@H]2O[C@H](CO)[C@@H](O)C2(F)F)c(=O)n1 [Gem, 2′,2′-difluoro 2′-deoxycytidine]
- genes significantly altered (PANC-1 KO cells): 1,598 genes
- genes significantly altered (WT PANC-1 cells): 21 genes
